Results on 36 compounds are retold here after the supplement of paper PMC4604168 (melanoma cell lines).

This is one part of the list. Single values are uncertain, as repeats are few or missing.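 The apoptosis fraction was the count of cleaved-PARP antibody-stained nuclei relative to all DNA-stained nuclei, imaged in 1,536-well plates. Screening doses were set so most cells survived, and baseline and induced cleaved-PARP levels vary greatly across cell lines.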

The subject of the test is LOXIMVI. The experiment in a line: cleaved PARP positive nuclei fraction relative to DMSO control; melanoma cells; higher = more apoptosis. Conditions: library dose: low library concentration; 72 h.
Regarding `CN(C)S(=O)(=O)c1ccc2c(c1)/C(=C/c1cc3c([nH]1)CCCC3)C(=O)N2` + COc1cc2ncnc(Nc3ccc(Oc4ccccc4)cc3)c2cc1OC [SrcI1] (first compound 0.4 µM, partner dose 2 µM), the “cleaved PARP positive nuclei fraction” value turned out to be 71.6%.

Consider `NCC(=O)Nc1ccc(-n2nc(C(F)(F)F)cc2-c2ccc3c(ccc4ccccc43)c2)cc1` + Cn1cc(/C=C2\C(=O)Nc3cccnc32)c2ccccc21 [GW441756] (first compound 1 µM, partner dose 0.4 µM), for which the “cleaved PARP positive nuclei fraction” value turned out to be 90.4%.

Take `O=C(Nc1ccccc1)c1cc([N+](=O)[O-])ccc1Cl` + Oc1cc(-c2nc(-c3ccccc3)[nH]c2-c2ccncc2)ccc1Cl [L779450] (first compound 2 µM, partner dose 0.2 µM): the “cleaved PARP positive nuclei fraction” value was determined as 59%.

With `O=C1NC(=O)/C(=C/c2ccc(-c3ccc(F)cc3O)o2)S1` + c1cc(-c2cnn3cc(-c4ccc(OCCN5CCCCC5)cc4)cnc23)ccn1 [Dorsomorphin] (first compound 1 µM, partner dose 0.4 µM), the “cleaved PARP positive nuclei fraction” value turned out to be 33%.

With `COC(=O)c1sccc1S(=O)(=O)Nc1ccc(Nc2ccccc2)cc1OC` + COc1ccc(COc2ccc(Cc3cnc(N)nc3N)cc2OC)cc1 [GW2580] (first compound 1 µM, partner dose 1 µM), the “cleaved PARP positive nuclei fraction” value was 59.9%.

Take `COc1cc2c(Oc3ccc4[nH]c(C)cc4c3F)ncnc2cc1OCCCN1CCCC1` [cediranib] + CCN(CC)CCCCNc1ncc2cc(-c3cc(OC)cc(OC)c3)c(NC(=O)NC(C)(C)C)nc2n1 [PD173074] (first compound 0.4 µM, partner dose 0.1 µM): the “cleaved PARP positive nuclei fraction” value amounted to 53.3%.

Regarding `O=C1NC(=O)/C(=C/c2ccc(-c3ccc(F)cc3O)o2)S1` + COc1cc(N2CCC(N3CCN(C)CC3)CC2)ccc1Nc1ncc(Cl)c(Nc2ccccc2S(=O)(=O)C(C)C)n1 [NVP-TAE684] (first compound 1 µM, partner dose 0.08 µM), the “cleaved PARP positive nuclei fraction” value turned out to be 39.5%.

Turning to `O=C(O)c1ccc(-c2c[nH]c3ncc(-c4ccccc4)cc23)cc1C1CCCC1` + O=C(O)C(=O)Nc1sc2c(c1C(=O)O)CCNC2 [TCS401] (first compound 0.16 µM, partner dose 1.66667 µM), the “cleaved PARP positive nuclei fraction” value turned out to be 51%.

In the case of `CN(NC(=O)CC(=O)NN(C)C(=S)c1ccccc1)C(=S)c1ccccc1` + CCN(CC)CCCCNc1ncc2cc(-c3cc(OC)cc(OC)c3)c(NC(=O)NC(C)(C)C)nc2n1 [PD173074] (first compound 0.006 µM, partner dose 0.1 µM), the “cleaved PARP positive nuclei fraction” value turned out to be 193%.

In the case of `NCC(=O)Nc1ccc(-n2nc(C(F)(F)F)cc2-c2ccc3c(ccc4ccccc43)c2)cc1` + Cc1cc([N+](=O)[O-])ccc1NS(=O)(=O)c1cc(Cl)ccc1Cl [FH535] (first compound 1 µM, partner dose 1 µM), the “cleaved PARP positive nuclei fraction” value came out at 172%.

As to `COc1ccc(COc2ccc(Cc3cnc(N)nc3N)cc2OC)cc1` + O=S(=O)(c1ccccc1)N(CC(F)(F)F)c1ccc(C(O)(C(F)(F)F)C(F)(F)F)cc1 [T0901317] (first compound 1 µM, partner dose 1.4 µM), the “cleaved PARP positive nuclei fraction” value amounted to 68.8%.

With `O=C(Nc1ccccc1)c1cc([N+](=O)[O-])ccc1Cl` + COc1ccc(COc2ccc(Cc3cnc(N)nc3N)cc2OC)cc1 [GW2580] (first compound 2 µM, partner dose 1 µM), the “cleaved PARP positive nuclei fraction” value was found to be 81.7%.

`NCC(=O)Nc1ccc(-n2nc(C(F)(F)F)cc2-c2ccc3c(ccc4ccccc43)c2)cc1` + COc1ccc(-c2ccc3c(N4CCOCC4)nc(N4C[C@@H](C)O[C@@H](C)C4)nc3n2)cc1CO [KU0063794] (first compound 1 µM, partner dose 0.02 µM): the “cleaved PARP positive nuclei fraction” value came to 1970%.

For `COc1cc2c(Oc3ccc4[nH]c(C)cc4c3F)ncnc2cc1OCCCN1CCCC1` [cediranib] + COc1ccc(-c2ccc3c(N4CCOCC4)nc(N4C[C@@H](C)O[C@@H](C)C4)nc3n2)cc1CO [KU0063794] (first compound 0.4 µM, partner dose 0.02 µM), the “cleaved PARP positive nuclei fraction” value worked out at 36.1%.

For `O=S(=O)(c1ccccc1)N(CC(F)(F)F)c1ccc(C(O)(C(F)(F)F)C(F)(F)F)cc1` + CC(C)CCN1c2nc(Nc3cc(F)c(O)c(F)c3)ncc2N(C)C(=O)C1C [BID1870] (first compound 1.4 µM, partner dose 0.2 µM), the “cleaved PARP positive nuclei fraction” value came out at 73.6%.

With `NCC(=O)Nc1ccc(-n2nc(C(F)(F)F)cc2-c2ccc3c(ccc4ccccc43)c2)cc1` + COc1cc2ncnc(Nc3ccc(Oc4ccccc4)cc3)c2cc1OC [SrcI1] (first compound 1 µM, partner dose 2 µM), the “cleaved PARP positive nuclei fraction” value was determined as 57.5%.

Consider `NCC(=O)Nc1ccc(-n2nc(C(F)(F)F)cc2-c2ccc3c(ccc4ccccc43)c2)cc1` + O=C1NC(=O)/C(=C/c2ccc(-c3ccc(F)cc3O)o2)S1 [AS252424] (first compound 1 µM, partner dose 1 µM), for which the “cleaved PARP positive nuclei fraction” value worked out at 38.9%.

With `COc1cc2ncnc(Nc3ccc(Oc4ccccc4)cc3)c2cc1OC` + c1cc(-c2cnn3cc(-c4ccc(OCCN5CCCCC5)cc4)cnc23)ccn1 [Dorsomorphin] (first compound 2 µM, partner dose 0.4 µM), the “cleaved PARP positive nuclei fraction” value turned out to be 115%.

For the compound `CCc1ccc(CCOc2ccc(CC3SC(=O)NC3=O)cc2)nc1` (stereo unspecified) [pioglitazone] + COC(=O)c1sccc1S(=O)(=O)Nc1ccc(Nc2ccccc2)cc1OC [GSK0660] (first compound 2 µM, partner dose 1 µM), the “cleaved PARP positive nuclei fraction” value stood at 73.9%.

`O=C(Nc1ccccc1)c1cc([N+](=O)[O-])ccc1Cl` + COc1ccc2c(c1)CCC1C2CCC2(C)C(NCCCCCCN3C(=O)C=CC3=O)CCC12 [U73122] (first compound 2 µM, partner dose 0.4 µM): the “cleaved PARP positive nuclei fraction” value is 219%.

With `COc1cc2c(Oc3ccc4[nH]c(C)cc4c3F)ncnc2cc1OCCCN1CCCC1` [cediranib] + O=C1NC(=O)/C(=C/c2ccc(-c3ccc(F)cc3O)o2)S1 [AS252424] (first compound 0.4 µM, partner dose 1 µM), the “cleaved PARP positive nuclei fraction” value worked out at 68.3%.

`O=C(O)c1ccc(-c2c[nH]c3ncc(-c4ccccc4)cc23)cc1C1CCCC1` + CCc1ccc(CCOc2ccc(CC3SC(=O)NC3=O)cc2)nc1 [pioglitazone] (first compound 0.16 µM, partner dose 2 µM): the “cleaved PARP positive nuclei fraction” value was 105%.

As to `COc1cc2ncnc(Nc3ccc(Oc4ccccc4)cc3)c2cc1OC` + Oc1cc(-c2nc(-c3ccccc3)[nH]c2-c2ccncc2)ccc1Cl [L779450] (first compound 2 µM, partner dose 0.2 µM), the “cleaved PARP positive nuclei fraction” value came to 122%.

For `Oc1nc(-c2ccc(C(F)(F)F)cc2)nc2c1CSCC2` + O=c1cc(-c2cccc3c2Sc2ccccc2S3)oc(N2CCOCC2)c1 [KU55933] (first compound 2 µM, partner dose 1 µM), the “cleaved PARP positive nuclei fraction” value came out at 25.8%.

With `COc1ccc(-c2ccc3c(N4CCOCC4)nc(N4C[C@@H](C)O[C@@H](C)C4)nc3n2)cc1CO` + O=S(=O)(c1ccccc1)N(CC(F)(F)F)c1ccc(C(O)(C(F)(F)F)C(F)(F)F)cc1 [T0901317] (first compound 0.02 µM, partner dose 1.4 µM), the “cleaved PARP positive nuclei fraction” value came to 48.3%.

For `N#Cc1c(O)c2c(-c3ccc(-c4ccccc4O)cc3)csc2[nH]c1=O` + Cn1cc(/C=C2\C(=O)Nc3cccnc32)c2ccccc21 [GW441756] (first compound 2 µM, partner dose 0.4 µM), the “cleaved PARP positive nuclei fraction” value turned out to be 123%.

In the case of `NCC(=O)Nc1ccc(-n2nc(C(F)(F)F)cc2-c2ccc3c(ccc4ccccc43)c2)cc1` + O=C(O)C(=O)Nc1sc2c(c1C(=O)O)CCNC2 [TCS401] (first compound 1 µM, partner dose 1.66667 µM), the “cleaved PARP positive nuclei fraction” value turned out to be 78.2%.

Regarding `NCC(=O)Nc1ccc(-n2nc(C(F)(F)F)cc2-c2ccc3c(ccc4ccccc43)c2)cc1` + CCc1ccc(CCOc2ccc(CC3SC(=O)NC3=O)cc2)nc1 [pioglitazone] (first compound 1 µM, partner dose 2 µM), the “cleaved PARP positive nuclei fraction” value worked out at 46.6%.

As to `O=C(Nc1ccccc1)c1cc([N+](=O)[O-])ccc1Cl` + CC(C)CCN1c2nc(Nc3cc(F)c(O)c(F)c3)ncc2N(C)C(=O)C1C [BID1870] (first compound 2 µM, partner dose 0.2 µM), the “cleaved PARP positive nuclei fraction” value is 48.3%.

Turning to `O=C(O)c1ccc(-c2c[nH]c3ncc(-c4ccccc4)cc23)cc1C1CCCC1` + Oc1cc(-c2nc(-c3ccccc3)[nH]c2-c2ccncc2)ccc1Cl [L779450] (first compound 0.16 µM, partner dose 0.2 µM), the “cleaved PARP positive nuclei fraction” value turned out to be 36.1%.

Take `CN(C)S(=O)(=O)c1ccc2c(c1)/C(=C/c1cc3c([nH]1)CCCC3)C(=O)N2` + COc1ccc(COc2ccc(Cc3cnc(N)nc3N)cc2OC)cc1 [GW2580] (first compound 0.4 µM, partner dose 1 µM): the “cleaved PARP positive nuclei fraction” value is 27%.

In the case of `COc1ccc(COc2ccc(Cc3cnc(N)nc3N)cc2OC)cc1` + c1cc(-c2cnn3cc(-c4ccc(OCCN5CCCCC5)cc4)cnc23)ccn1 [Dorsomorphin] (first compound 1 µM, partner dose 0.4 µM), the “cleaved PARP positive nuclei fraction” value stood at 72.2%.

For `COc1ccc(-c2ccc3c(N4CCOCC4)nc(N4C[C@@H](C)O[C@@H](C)C4)nc3n2)cc1CO` + Oc1cc(-c2nc(-c3ccccc3)[nH]c2-c2ccncc2)ccc1Cl [L779450] (first compound 0.02 µM, partner dose 0.2 µM), the “cleaved PARP positive nuclei fraction” value amounted to 92.6%.

Consider `CCN(CC)CCCCNc1ncc2cc(-c3cc(OC)cc(OC)c3)c(NC(=O)NC(C)(C)C)nc2n1` + Cc1cc([N+](=O)[O-])ccc1NS(=O)(=O)c1cc(Cl)ccc1Cl [FH535] (first compound 0.1 µM, partner dose 1 µM), for which the “cleaved PARP positive nuclei fraction” value came out at 71.9%.

`O=S(=O)(c1ccccc1)N(CC(F)(F)F)c1ccc(C(O)(C(F)(F)F)C(F)(F)F)cc1` + Cc1cc([N+](=O)[O-])ccc1NS(=O)(=O)c1cc(Cl)ccc1Cl [FH535] (first compound 1.4 µM, partner dose 1 µM): the “cleaved PARP positive nuclei fraction” value worked out at 62.9%.

For the compound `COc1cc2ncnc(Nc3ccc(Oc4ccccc4)cc3)c2cc1OC` + O=C(O)C(=O)Nc1sc2c(c1C(=O)O)CCNC2 [TCS401] (first compound 2 µM, partner dose 1.66667 µM), the “cleaved PARP positive nuclei fraction” value came to 98.1%.
